Source: patent US20240360233A1
No constants are given. Whether binding was seen depends on the method and setting. Some results given as binding are weak or reduced against the parent protein; the word gives no strength.

By UniProt entry, the sequences of proteins in these tests, tags left out. Residues count along the entry.
UniProt Q9HC73, residues 23-231: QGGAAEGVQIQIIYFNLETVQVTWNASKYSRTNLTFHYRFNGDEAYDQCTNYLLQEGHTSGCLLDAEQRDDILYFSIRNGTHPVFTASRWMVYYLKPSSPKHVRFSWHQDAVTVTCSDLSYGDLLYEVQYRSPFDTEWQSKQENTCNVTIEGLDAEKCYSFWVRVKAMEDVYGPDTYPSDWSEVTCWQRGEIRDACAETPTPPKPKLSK

B1: TSLPR antibody clone 1B9 (antibody, V domains shown)
VH: QVQLQESGPGLVKPSGTLSLTCAVSGGSIRSSNWWSWVRQPPGKGLEWIGEIYHGGTTNNNPSLKSRVTISVDQSKSQFSLKLSSVTAADTAVYYCARHRYSSGLDYWGQGTLVTVSS
VL: DIQMTQTPSTLSASVGDRVTITCRGSHSISNWLGWYRHKPRKAPNLLIYKASSLKSGVPSRFSGSGSGTEFTLTITSLQPDDFATYYCQQYNHYSTFGQGTKVDIKR
B2: TSLPR antibody clone 10C4 (antibody, V domains shown)
VH: QVQLQESGPGLVKPSGTLSLTCAVSGGSINSNNWWSWVRQPPGKGLEWIGDIYHSGSTNYNPSLKSRVTISVDKSKSQFSLKLSSVTAADTAVYYCARRRWLQHFDFWGQGTLVTVSS
VL: DIQMTQSPSTLSASVGDRVTITCRASQSITNWLAWYQQKPGKAPKLLIYKASSLESGVPSRFSGSGSGTEFTLAISSLQPDDFATYYCQQYNIYPLAFGGGTKVEIKR
B3: TSLPR antibody clone 1G3 (antibody, V domains shown)
VH: QVQLVESGGGVVQPGRSLRLSCAASGFTFSSYGMHWVRQTPGKGLEWVAVMWYDGRNKYYADSVKGRFTISRDNSKNTLYLQMNSLRAEDTAVYYCARDRIMVRGVIIPHVFDIWGQGTMVTVSS
VL: EIVMTQSPATLSVSPGERATLSCRASQSVSSNLGWYQQKPGQAPRLLIYGASTRATGIPARFSGSGSGTEFILTISSLQSEDFAVYYCQEYNNWWTFGQGTKVDIKR
B4: TSLPR antibody clone 3D8 (antibody, V domains shown)
VH: QVQLVESGGGVVQPGRSLRLSCAASGFTFSSYVMHWVRQAPGKGLEWVAVIWYAGNKKYYADSVKGRFTISRDNSNNTLYLQMNSLRAEDTAVYYCAREYSSSWHYYGMDVWGQGTTVTVSS
VL: DIQLTQSPSFLSASVGDRVTITCRASQGISSYLAWYQQKPGKAPKLLIYAASTLQSGVPSRFSGSGSGTEFTLTISSLQPEDFATYYCQQLNSYPLTFGGGTKVDIKR
B5: TSLPR antibody clone 2F5 (antibody, V domains shown)
VH: EVQLVESGGGLVQSGGSLRFSCAASGFTFSSHPMNWVRQVPGKGLEWVSSISGSGGSTYYADFVKGRFTISRDNSKNTLYLQMNSLRAEDTAVYYCAKGHNSGWKYWGQGTLVTVSS
VL: DIQLTQSPSFLSASVGDRVTITCRASQGISSYLAWYQQKPGKAPKLLIYAASTLQSGVPSRFSGSGSGTEFTLTISSLQPEDFATYYCQQLNSYPPTFGQGTKVDIKR
B6: TSLPR antibody clone 2F1 (antibody, V domains shown)
VH: QVQLQESGPGLVKPSETLSLTCTVSGGSISRYYWSWIRQPPGKGLEWIGYIFYNKNTNYNPSLKSRVTISVDTSKNQFSLKLSSVTAADTAVYYCARYIAAIYTDLYYFDYWGQGTLVTVSS
VL: DIQLTQSPSFLSASVGDRVTITCRASQGISSYLAWYQQKPGKAPKLLIYAASTLQSGVPSRFSGSGSGTEFTLTISSLQPEDFATYHCQQLNSYPLTFGGMTKVEIKR
B7: TSLPR antibody clone 3E5 (antibody, V domains shown)
VH: EVQLLESGGGLVQPGGSLRLSCAASGFTFSSNAMSWVRQAPGKGLEWVSAIRGRGGSTYYADSVKGRFTISRDNSKNTLYLQLNSLRAEDTAVYYCAKDRIVVAGPFDHWGQGTLVTVSS
VL: DIQLTQSPSFLSASVGDRVTITCRASQGISSYLAWYQQKPGKAPKLLIYAASTLQSGVPSRFSGSGSGTEFTLTISSLQPEDFATYYCQQLNRYPLTFGGGTKVDIKR
B8: TSLPR antibody clone 2E6 (antibody, V domains shown)
VH: EVQLLESGGNLVQPGGSLRLSCAASGFTFGSYVMTWGRQAPGKGLEWVSTISASGGSTYYADSVKGRFTISRDNSKNTLYLQMNSLRAEDTAVYYCAKDKWGKGFDIWGQGTMVTVSS
VL: DIQLTQSPSFLSASVGDRVTITCRASQGISSYLAWYQQKPGKAPKLLIYAASTLQSGVPSRFSGSGSGTEFTLTISSLQPEDFATYYCQQLNSYPPTFGGGTKVEIKR
B9: TSLPR antibody clone 2A4 (antibody, V domains shown)
VH: QVQLVQSGAEVKKPGASVKVSCKASGYTFTGYYMHWVRQAPGQGLEWMGRFNLHSGVTNYAQKFQGRVTMTRDTSISTVYMDLSRLRSDDTAVYYCARERQWLVQDYFDYWGQGTLVTVSS
VL: DIQMTQSPSSLSASVGDRVTITCRASQSISNYLNWYQQKPGKAPNLLICAASSLQSGVPSRFSGSGSGTDFTLTISSLQPEDFATYYCQQSYSIPPTFGQGTKVDIKR
B10: TSLPR antibody clone 2H1 (antibody, V domains shown)
VH: EVQLLESGGGLVQPGGSLSLSCAASGFTFSRYGMHWVRQAPGKGLEWVSAISASGGSTYYADSVKGRFTISRDNSKNTLYLQMNSLRAEDTAVYYCAKDKWGYAFDIWGQGTTVTVSS
VL: DIQMTQSPSTLSASVGDRVTITCRASQSISNWLAWYQQKPGKAPKLLIYKASSLESGVPSRFSGSGSGTEFTLTISSLQPDDFATYYCLQYNHYSTFGQGTKVDIKR
B11: TSLPR antibody clone 2E4 (antibody, V domains shown)
VH: EVQLLESGGGLVQPGGSLRLSCAASGFTFSSYAMNWVRQAPGKGLEWVSGISGSGGSTYYADSVKGRFTFSRDNSKNTLYLQMISLRAEDTAVYYCAKDQRITMVRGVIGAFDIWGQGTMVTVSS
VL: DIQMTQSPSTLSASVGDRVTITCRASQSISSWLAWYQQKPGKAPKLLIYKASSLESGVPSRFSGSGSGTEFTLTISSLQPDDFATYYCQQYVGLITFGQGTRLEIKR
B12: TSLPR antibody clone 2D11 (antibody, V domains shown)
VH: QVQLQESGPGLVKPSETLSLTCAVSGYSISSGYYWGWIRQPPGKGLEWIGRIYHSGTTSYNPSLKRRVTISVDTSKNQFSLKLSSVTATDTAVYYCARNWGGNWFDPWGQGTLVTVSS
VL: DIQMTQSPSSLSASVGDRVTITCRASQGISNYLAWYQQKPGKVPKLLIYAASTLQSGVPSRFSGSGSGTDFTLTISSLQPEDVATYYCQKYNSARTFGQGTKVDIKR

These binders were tested against his-tagged TSLPR (TSLPR-HIS) (UniProt Q9HC73) (assay: BLI (ForteBio AHQ sensor)).

binding, binds:
B1
B2
B3
B4
B5
B6
B7
B8
B9
B10
B11
B12
